Experimental findings from article PMC11416316 are described below.

The chains behind the UniProt entries cited, without tags or fusion partners. Where a name states a change or a piece, a line headed by the entry shows the natural chain unless it says otherwise.
UniProt P35729: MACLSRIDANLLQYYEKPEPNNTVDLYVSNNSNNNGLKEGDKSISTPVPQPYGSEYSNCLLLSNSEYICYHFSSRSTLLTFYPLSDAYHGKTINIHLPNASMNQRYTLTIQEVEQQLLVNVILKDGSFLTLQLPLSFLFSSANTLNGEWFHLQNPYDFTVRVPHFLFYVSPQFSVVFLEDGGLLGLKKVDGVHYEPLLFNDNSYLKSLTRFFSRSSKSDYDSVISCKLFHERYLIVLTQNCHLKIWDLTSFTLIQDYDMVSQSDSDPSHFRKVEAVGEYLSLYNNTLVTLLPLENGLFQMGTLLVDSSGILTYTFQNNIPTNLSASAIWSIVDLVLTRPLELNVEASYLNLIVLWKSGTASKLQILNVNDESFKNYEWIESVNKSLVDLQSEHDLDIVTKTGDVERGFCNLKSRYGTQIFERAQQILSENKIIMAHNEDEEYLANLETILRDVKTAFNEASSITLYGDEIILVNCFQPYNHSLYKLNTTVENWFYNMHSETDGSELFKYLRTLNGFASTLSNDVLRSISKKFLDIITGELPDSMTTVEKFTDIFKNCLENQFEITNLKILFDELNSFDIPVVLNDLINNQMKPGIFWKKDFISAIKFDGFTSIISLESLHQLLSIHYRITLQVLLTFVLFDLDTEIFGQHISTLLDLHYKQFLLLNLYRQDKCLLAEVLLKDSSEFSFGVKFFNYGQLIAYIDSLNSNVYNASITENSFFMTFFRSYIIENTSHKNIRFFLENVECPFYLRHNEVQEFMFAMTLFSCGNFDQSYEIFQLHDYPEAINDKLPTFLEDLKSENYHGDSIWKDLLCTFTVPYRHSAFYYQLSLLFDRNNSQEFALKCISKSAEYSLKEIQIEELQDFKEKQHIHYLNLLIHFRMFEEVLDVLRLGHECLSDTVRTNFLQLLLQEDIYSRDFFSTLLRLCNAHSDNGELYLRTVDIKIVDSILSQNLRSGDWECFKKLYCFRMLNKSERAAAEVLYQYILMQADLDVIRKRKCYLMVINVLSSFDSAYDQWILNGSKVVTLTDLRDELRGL
UniProt F6ZDS4: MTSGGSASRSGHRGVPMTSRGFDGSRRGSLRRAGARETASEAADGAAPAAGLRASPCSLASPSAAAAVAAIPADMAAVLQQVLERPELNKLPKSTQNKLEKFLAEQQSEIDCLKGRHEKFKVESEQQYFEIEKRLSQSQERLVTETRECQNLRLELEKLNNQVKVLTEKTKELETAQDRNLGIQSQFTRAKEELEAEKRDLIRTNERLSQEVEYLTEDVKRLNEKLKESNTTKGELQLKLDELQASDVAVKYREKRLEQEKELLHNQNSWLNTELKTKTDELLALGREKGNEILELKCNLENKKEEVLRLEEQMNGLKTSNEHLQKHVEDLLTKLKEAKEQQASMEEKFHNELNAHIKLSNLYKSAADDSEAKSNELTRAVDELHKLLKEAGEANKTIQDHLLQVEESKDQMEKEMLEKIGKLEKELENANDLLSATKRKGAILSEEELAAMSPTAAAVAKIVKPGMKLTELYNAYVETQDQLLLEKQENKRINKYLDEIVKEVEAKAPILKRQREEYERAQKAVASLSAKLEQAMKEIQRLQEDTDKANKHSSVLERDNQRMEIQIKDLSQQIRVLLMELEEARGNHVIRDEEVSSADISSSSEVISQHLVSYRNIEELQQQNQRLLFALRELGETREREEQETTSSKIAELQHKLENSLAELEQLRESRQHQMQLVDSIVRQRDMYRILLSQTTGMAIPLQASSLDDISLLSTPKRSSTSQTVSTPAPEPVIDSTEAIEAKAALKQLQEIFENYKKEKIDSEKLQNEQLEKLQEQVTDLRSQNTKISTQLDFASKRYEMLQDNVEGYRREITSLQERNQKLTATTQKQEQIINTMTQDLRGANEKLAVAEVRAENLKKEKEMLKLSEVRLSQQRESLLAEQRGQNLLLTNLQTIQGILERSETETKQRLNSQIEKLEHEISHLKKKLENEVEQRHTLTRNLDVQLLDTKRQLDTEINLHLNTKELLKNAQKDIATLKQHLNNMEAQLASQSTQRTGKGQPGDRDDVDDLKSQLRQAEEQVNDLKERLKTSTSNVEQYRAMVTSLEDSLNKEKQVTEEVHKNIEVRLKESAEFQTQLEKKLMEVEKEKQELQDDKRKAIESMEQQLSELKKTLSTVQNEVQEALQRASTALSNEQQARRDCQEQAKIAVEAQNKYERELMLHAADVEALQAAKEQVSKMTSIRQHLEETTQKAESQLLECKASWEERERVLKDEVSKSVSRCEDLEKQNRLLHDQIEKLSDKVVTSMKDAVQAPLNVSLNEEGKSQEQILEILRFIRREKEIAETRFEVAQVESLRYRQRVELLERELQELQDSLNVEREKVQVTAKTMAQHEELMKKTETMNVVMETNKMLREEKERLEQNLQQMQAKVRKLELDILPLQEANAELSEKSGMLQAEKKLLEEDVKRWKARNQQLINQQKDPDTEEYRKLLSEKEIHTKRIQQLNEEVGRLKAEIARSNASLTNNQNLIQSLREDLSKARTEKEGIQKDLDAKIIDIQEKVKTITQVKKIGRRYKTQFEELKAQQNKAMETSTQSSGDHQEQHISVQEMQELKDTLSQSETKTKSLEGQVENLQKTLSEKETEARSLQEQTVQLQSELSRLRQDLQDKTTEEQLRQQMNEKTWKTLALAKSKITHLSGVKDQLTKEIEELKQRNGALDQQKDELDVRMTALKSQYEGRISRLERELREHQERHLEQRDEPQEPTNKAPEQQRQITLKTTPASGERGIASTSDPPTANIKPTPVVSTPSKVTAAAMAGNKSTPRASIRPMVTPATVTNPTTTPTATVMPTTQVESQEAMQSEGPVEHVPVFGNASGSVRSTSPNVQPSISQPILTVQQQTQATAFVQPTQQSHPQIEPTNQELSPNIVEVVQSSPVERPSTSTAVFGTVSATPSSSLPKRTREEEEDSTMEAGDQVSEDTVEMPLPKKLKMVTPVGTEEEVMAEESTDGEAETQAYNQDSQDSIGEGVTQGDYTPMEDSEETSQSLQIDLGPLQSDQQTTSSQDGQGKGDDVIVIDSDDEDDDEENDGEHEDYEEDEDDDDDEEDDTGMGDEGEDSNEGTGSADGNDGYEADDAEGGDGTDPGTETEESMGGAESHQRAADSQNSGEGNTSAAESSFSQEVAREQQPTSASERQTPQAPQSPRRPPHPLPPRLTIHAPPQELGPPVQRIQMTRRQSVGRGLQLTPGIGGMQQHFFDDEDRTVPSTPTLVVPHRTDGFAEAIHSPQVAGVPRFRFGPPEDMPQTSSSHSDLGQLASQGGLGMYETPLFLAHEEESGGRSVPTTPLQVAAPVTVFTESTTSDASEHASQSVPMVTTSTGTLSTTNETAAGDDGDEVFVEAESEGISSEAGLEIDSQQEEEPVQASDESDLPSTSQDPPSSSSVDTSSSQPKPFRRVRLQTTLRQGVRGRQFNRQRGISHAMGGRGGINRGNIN
UniProt Q9Z0W3: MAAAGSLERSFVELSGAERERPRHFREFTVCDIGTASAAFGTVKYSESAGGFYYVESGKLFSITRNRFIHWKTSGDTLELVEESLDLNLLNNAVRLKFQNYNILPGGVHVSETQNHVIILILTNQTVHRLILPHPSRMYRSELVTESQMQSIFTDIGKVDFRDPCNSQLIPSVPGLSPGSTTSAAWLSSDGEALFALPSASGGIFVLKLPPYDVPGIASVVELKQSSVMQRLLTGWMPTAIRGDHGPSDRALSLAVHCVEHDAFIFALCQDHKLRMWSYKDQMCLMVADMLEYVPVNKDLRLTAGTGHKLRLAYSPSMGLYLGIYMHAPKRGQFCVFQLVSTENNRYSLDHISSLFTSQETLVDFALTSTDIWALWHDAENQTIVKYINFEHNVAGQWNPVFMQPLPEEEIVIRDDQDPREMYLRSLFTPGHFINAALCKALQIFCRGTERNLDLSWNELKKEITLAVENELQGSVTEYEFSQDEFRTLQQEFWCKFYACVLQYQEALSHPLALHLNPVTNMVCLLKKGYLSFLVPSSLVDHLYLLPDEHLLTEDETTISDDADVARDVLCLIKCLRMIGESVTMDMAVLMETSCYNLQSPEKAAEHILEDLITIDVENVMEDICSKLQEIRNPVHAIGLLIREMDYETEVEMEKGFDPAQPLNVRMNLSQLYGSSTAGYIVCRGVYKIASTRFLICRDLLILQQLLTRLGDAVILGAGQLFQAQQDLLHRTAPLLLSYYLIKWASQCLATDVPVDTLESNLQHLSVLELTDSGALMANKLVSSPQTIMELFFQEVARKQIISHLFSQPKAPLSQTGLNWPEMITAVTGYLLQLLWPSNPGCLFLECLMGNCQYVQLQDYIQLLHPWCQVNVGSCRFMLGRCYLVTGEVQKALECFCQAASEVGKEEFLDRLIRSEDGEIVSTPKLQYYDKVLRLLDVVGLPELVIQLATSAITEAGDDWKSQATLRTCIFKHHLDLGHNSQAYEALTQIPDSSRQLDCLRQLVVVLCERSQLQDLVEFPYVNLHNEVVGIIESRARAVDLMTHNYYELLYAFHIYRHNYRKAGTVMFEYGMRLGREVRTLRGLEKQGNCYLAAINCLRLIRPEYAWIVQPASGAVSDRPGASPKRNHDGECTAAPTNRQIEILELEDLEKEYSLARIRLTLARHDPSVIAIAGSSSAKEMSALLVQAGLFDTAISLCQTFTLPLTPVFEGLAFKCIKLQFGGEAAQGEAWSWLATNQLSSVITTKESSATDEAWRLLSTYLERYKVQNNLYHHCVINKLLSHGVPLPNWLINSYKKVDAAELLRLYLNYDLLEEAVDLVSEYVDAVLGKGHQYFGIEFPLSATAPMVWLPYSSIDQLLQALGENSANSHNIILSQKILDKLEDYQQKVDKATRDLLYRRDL
UniProt P39705: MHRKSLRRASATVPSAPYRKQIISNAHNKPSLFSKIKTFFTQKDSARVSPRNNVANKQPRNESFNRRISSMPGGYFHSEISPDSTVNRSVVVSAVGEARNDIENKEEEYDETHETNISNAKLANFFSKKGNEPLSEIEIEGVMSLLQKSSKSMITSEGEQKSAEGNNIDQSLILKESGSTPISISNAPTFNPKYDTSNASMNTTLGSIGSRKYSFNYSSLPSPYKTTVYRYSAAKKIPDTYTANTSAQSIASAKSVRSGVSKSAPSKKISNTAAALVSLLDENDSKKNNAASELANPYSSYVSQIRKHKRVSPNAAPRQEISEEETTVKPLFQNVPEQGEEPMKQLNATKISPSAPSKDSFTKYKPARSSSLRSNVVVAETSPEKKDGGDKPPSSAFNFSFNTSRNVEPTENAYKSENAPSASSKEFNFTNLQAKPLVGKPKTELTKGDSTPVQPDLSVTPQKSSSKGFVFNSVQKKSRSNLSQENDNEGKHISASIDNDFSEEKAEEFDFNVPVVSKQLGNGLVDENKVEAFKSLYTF

Results are given in words; binding and its absence hold for the method and conditions named. Some results given as binding are weak or reduced against the parent protein; the word gives no strength.

The target of experiment [1] is yNup84 complex of the proximal nuclear ring (heptameric Y-complex) (S. cerevisiae (endogenous in W303)) (UniProt P35729). In words: cryo-EM structure; in-cell cryo-ET with subtomogram averaging of the yeast NPC with a double nuclear ring, read by integrative modelling (cryo-ET map, DSS cross-links of affinity-purified NPCs, immuno-EM, co-purification data, coiled-coil propensities); coarse-grained model, overall precision 57 Å.

For experiment [2], the target named is mTpr (mouse (endogenous in NIH3T3)) (UniProt F6ZDS4). Put plainly: cryo-EM structure; in-cell cryo-ET with subtomogram averaging of the mouse (NIH3T3) NPC, read by integrative modelling (cryo-ET map and structural equivalence restraints to the yeast model; no cross-links or co-purification data); coarse-grained model, overall precision 42 Å.
For experiment [3], the target named is mNup107 complex of the proximal nuclear ring (nonameric Y-complex) (mouse (endogenous in NIH3T3)) (UniProt Q9Z0W3). Described as above.

With yNup60 (from UniProt P39705 1-539), the binding result in experiment [1] was “binds”.

B1: mNup153 (protein, UniProt E9Q3G8 1-1462)
chain: MASEAGGIGGGGGGGKIRTRRCHQGPVKPYQQGRPQHQGILSRVTESVKNIVPGWLQRYFNKSENACSCSPDADEVPPWPENREDEHAIYADENTNTDDGRITPDPAGSNTEEPSTTSTASNYPDVLTRPSLHRSHLNFSVLESPALHCQPSTSSAFPIGSSGFSLVKEIKDSTSQHDDDNISTTSGFSSRASEKDIAVSKNTSLPPLWSPEAERSHSLSQHTAISSKKPAFNLSAFGTLSTSLGNSSILKTSQLGDSPFYPGKTTYGGAAAAVRQNKVRSTPYQAPVRRQMKAKQLNAQSYGVTSSTARRILQSLEKMSSPLADAKRIPSAVSSPLNSPLDRSGIDNTVFQAKKEKVDSQYPPVQRLMTPKPVSIATNRTVYFKPSLTPSGDLRKTNQRIDKKNSTVDEKSISRQNREQESGFSYPNFSIPAANGLSSGVGGGGGKMRRERTHFVAPKPPENEEVEAPLLPQISLPISSSSLPTFSFSSPVTSASPSPVSSSQPLPNKVQMTSLGSTGSPVFTFSSPIVKSTQAAVLPPASIGFTFSVPLAKTEFSGSNSSSETVLSSSAQDITAVNSSSYKKRSAPCEDPFTPAKILREGSVLDILKTPGFASPKVDSPALQPTTTSSIVYTRPAISTFSSSGIEYGESLKAGSSWQCDTCLLQNKVTDNKCIACQAAKLPLKETAKQTGTGTPSKSDKPASTSGTGFGDKFKPAIGTWDCDTCLVQNKPEAVKCVACETPKPGTGVKRALTLTVASESPVTASSSTTVTTGTLGFGDKFKRPVGSWECPVCCVCNKAEDNRCVSCTSEKPGLVSASSSSPAPVSLSSGGCLGLDKFKKPEGSWDCEVCLVQNKADSAKCIACESAKPGTKSEFKGFGTSSSLNPAPSAFKFGIPSSSSGLSQTLTSTGNFKFGDQGGFKLGTSSDSGSTNTMNTNFKFSKPTGDFKFGVLSDSKPEEVKNDNKNDNFQFGSSSGLTNPASSAPFQFGVSTLGQQEKKEELPKSSPAGFSFGAGVNNPPNAAIDTTATSENKSGFNFGTLDTKSVSVTPFTYKTTEAKKEDAPATKGGFTFGKVGSSSLPSSSMFVLGRTEEKQQEPVTSTSLVFGKKADSEEPKCQPVFSFGNSEQTKDESSKPTFSFSVAKPSGKESEQLAKATFAFGNQTNTTTDQGAAKPVFSFLNSSSSSSSAPATSSSGGIFGSSTSSSNPPVAAFVFGQASNPVSSSAFGNAAESSTSQSLLFPQESEPATTSSTAPAASPFVFGTGASSNSVSSGFTFGATTTSSSSGSSFVFGTGHSAPSASPAFGANQTPTFGQSQGASQPNPPSFGSISSSTALFSAGSQPVPPPIFGTVSSSSQPPVFGQQPSQSAFGSGTANASSVFQFGSSTTNFNFTNNNPSGVFTFGASPSTPAASAQPSGSGVFSFSQSPASFTVGSNGKNMFSSSGTSVSGRKIKTAVRRKK
On to B1, for which the binding result in experiment [2] and in experiment [3] was “binds” in each case.
